The list shows a part of the results. The main result of the screen is listed elsewhere. These columns were measured beside it and carry no call. Compounds called inactive in the main read-out are mostly missing here. Potencies come from curve fits of mixed quality, noted in brackets.
Assay: qHTS Assay for Lipid Storage Modulators in Drosophila S3 Cells;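 for cell number change: cells counted by Cell Tracker Red CMTPX staining in the red channel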
Conditions: BODIPY lipid droplet fluorescence, 18-24 h; for cell number change: measured here: cell count max response, cells fed with added oleic acid
Method in brief: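 Drosophila S3 cells got compounds at several concentrations plus oleic acid (400 uM solution). Laser-scanning cytometry with 488 nm excitation read lipid droplets at 500-530 nm and cells at 575-640 nm. Percent activity was relative to 20 uM Triacsin C.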

[1] = measured here: lipid fluorescence (Fed channel) AC50, cells fed with added oleic acid
[2] = measured here: cell number channel AC50, cells fed with added oleic acid

Row | SMILES | cell number change [%] | AC50 [1] | AC50 [2]
1 | COc1cccc(/C=C/C(=O)c2ccc3c(c2)OCCO3)c1OC | -3.65 | 29.1 µM [falling, single point] | –
2 | COc1ccc(CNC(=O)COC(=O)CCCOc2ccc(Cl)cc2Cl)cc1OC | – | – | 6.51 µM [rising, single point]
3 | Cc1cc(C)cc(NC(=O)CN2CCC(NC(=O)c3cccc(F)c3)CC2)c1 | 57.7 | – | 16.4 µM [rising, single point]
4 | CN1CCN(C(=O)c2sc(=S)n(-c3ccccc3)c2N)CC1 | -89.3 | 3.26 µM [falling, full curve] | 20.6 µM [falling, partial curve]
5 | CC(CNC(=O)c1ccccc1Cl)c1ccccc1 (stereo not given) | -30.6 | 23.1 µM [falling, partial curve, poor fit] | 0.00411 µM [falling, full curve, poor fit]
6 | CCN(CC)S(=O)(=O)c1ccc(C)c(N=C=S)c1 | 11.5 | 4.11 µM [rising, partial curve, poor fit] | –
7 | COCc1c(C(=O)N/N=C\c2ccccn2)nnn1-c1nonc1N | -0.435 | 2.91 µM [rising, single point] | –
8 | CC(C)(C)NC(=O)CN(Cc1ccco1)C(=O)CCC(=O)Nc1nccs1 | 23.4 | 29.1 µM [falling, single point] | 0.00411 µM [rising, full curve, poor fit]
9 | CN(Cc1nc(-c2ccc(Cl)cc2)no1)C(=O)c1ccc2c(c1)OCO2 | 36.8 | – | 13 µM [rising, single point]
10 | CCOC(=O)c1nn(-c2ccc(C)cc2)c2nc(Nc3ccccc3)cc(=O)n12 | 4.33 | – | –
11 | COc1cccc(C(=O)NC2C(=O)N3C(C(=O)O)=C(COC(C)=O)CSC23)c1 (stereo not given) | -30 | 5.17 µM [falling, full curve, poor fit] | 3.66 µM [falling, full curve, poor fit]
12 | Cc1ccc(C(=O)Nc2ccc3c(c2)OCCO3)o1 | 40.8 | – | 10.3 µM [rising, single point]
13 | CCOc1cc(-c2cc(-c3ccc(NC(C)=O)cc3)nc(N)c2C#N)ccc1O | -10.2 | 29.1 µM [falling, single point] | –
14 | Cc1noc(C)c1Cc1c(Cl)cccc1Cl | -27.8 | – | –
15 | O=C(CSc1nc(-c2ccccc2)c(-c2ccccc2)o1)N1CCOCC1 | -6.9 | 6.51 µM [falling, single point] | –
16 | O=C(CC1C(=O)NCCN1Cc1ccoc1)NCc1cccc(OC(F)(F)F)c1 (stereo not given) | 16.3 | 0.651 µM [rising, full curve, poor fit] | –
17 | Cc1c(C(=O)OC/C(O)=C(\C#N)c2nc3ccccc3[nH]2)oc2ccccc12 | -22.8 | 16.4 µM [falling, partial curve] | –
18 | CCCCn1c(N)c(N(CC(C)C)C(=O)CC2OC(=O)c3ccccc32)c(=O)[nH]c1=O (stereo not given) | -25 | 29.1 µM [rising, single point] | 3.26 µM [falling, full curve, poor fit]
19 | Cc1ccc(C2CC(=O)Nc3cc4c(cc32)OCCO4)s1 (stereo not given) | -154 | – | 25.9 µM [falling, partial curve]

Row | SMILES | cell number change [%] | AC50 [1] | AC50 [2]
20 | CN(C(=O)CSc1ncnc2sccc12)C1CCS(=O)(=O)C1 (stereo not given) | -20.7 | 0.231 µM [falling, full curve, poor fit] | –
21 | COc1ccc(C2C=C(c3ccc(Br)cc3)Nc3nc(N4C(=O)CCC4=O)nn32)cc1 (stereo not given) | 24 | – | –
22 | CN(C)c1ccc(/C=C2/NC(=O)NC2=O)cc1 | -5.55 | – | –
23 | O=C(NCCc1ccccc1F)/C(=C/c1cccnc1)NC(=O)c1ccccc1 | 8.4 | 0.164 µM [rising, partial curve, poor fit] | –
24 | COc1ccc(NC(=O)CSCC(=O)Nc2cc(Cl)ccc2N2CCOCC2)cc1 | -20.3 | – | –
25 | CCOc1ccc(S(=O)(=O)N2CCCCC2)cc1NC(=O)CSCc1c(C)noc1C | 14.4 | 3.66 µM [rising, partial curve, poor fit] | 6.51 µM [rising, single point]
26 | C[C@@H]1CC[C@H](O)/C=C/C(=O)O[C@H](C)CC[C@H](O)/C=C/C(=O)O1 | – | 6.51 µM [falling, partial curve] | –
27 | O=C(Nc1nnc(-c2ccc3c(c2)OCCO3)o1)c1ccc(Cc2ccccc2)cc1 | -6.26 | 0.291 µM [falling, full curve] | –
28 | CCC(=O)N1c2ccccc2NC2=C(C(=O)CCC2)C1c1cccnc1 (stereo not given) | 4.23 | 3.26 µM [rising, single point] | –
29 | COC(=O)CCc1nc2cc(Cl)ccc2n(Cc2ccccc2)c1=O | 109 | – | –
30 | CCOC(=O)n1n[n+]([O-])c2ccccc21 | -17.3 | 6.51 µM [falling, partial curve] | –
31 | Cc1cc(C)nc(N2CCC(C(=O)Nc3nnc(C)s3)CC2)n1 | 4.31 | – | –
32 | COc1ccc(N2C(=O)CC(N3CCN(c4ccccc4OC)CC3)C2=O)cc1 (stereo not given) | 8.21 | 6.51 µM [rising, single point] | –
33 | CCOc1ccc(CNC(=O)CCC(=O)N2CCSc3ccccc32)cc1 | 22.5 | 1.84 µM [rising, full curve] | –
34 | Cc1cccc(C)c1OCCCN1CCCC1 | -32.3 | 0.731 µM [falling, full curve] | 0.82 µM [falling, full curve]
35 | O=S(=O)(Nc1ccc(Cc2ccncc2)cc1)c1ccc(Cl)s1 | 12.8 | 20.6 µM [rising, single point] | –
36 | CCCn1c(=O)[nH]c(=O)c2c1nc(-c1cc([N+](=O)[O-])ccc1Cl)n2CCOC | -3.85 | 6.51 µM [falling, partial curve] | 0.82 µM [rising, partial curve, poor fit]
37 | CN1CCC(OC(=O)c2ccc(Cl)cc2Cl)CC1 | 2.49 | 23.1 µM [rising, single point] | –
38 | CCc1nc(SCC(=O)Nc2ccc(OC)cc2[N+](=O)[O-])n[nH]1 | 11.6 | 3.66 µM [rising, single point] | –

Records 28 through 29, quoted:
Row | SMILES | cell number change [%] | AC50 [1] | AC50 [2]
28 | CCC(=O)N1c2ccccc2NC2=C(C(=O)CCC2)C1c1cccnc1 (stereo not given) | 4.23 | 3.26 µM [rising, single point] | –
29 | COC(=O)CCc1nc2cc(Cl)ccc2n(Cc2ccccc2)c1=O | 109 | – | –

Reference: PubChem BioAssay AID2685 (National Center for Advancing Translational Sciences (NCATS), 2010)
